Chains of the proteins cited; added tags and fusions are not shown.
UniProt Q3V6T2: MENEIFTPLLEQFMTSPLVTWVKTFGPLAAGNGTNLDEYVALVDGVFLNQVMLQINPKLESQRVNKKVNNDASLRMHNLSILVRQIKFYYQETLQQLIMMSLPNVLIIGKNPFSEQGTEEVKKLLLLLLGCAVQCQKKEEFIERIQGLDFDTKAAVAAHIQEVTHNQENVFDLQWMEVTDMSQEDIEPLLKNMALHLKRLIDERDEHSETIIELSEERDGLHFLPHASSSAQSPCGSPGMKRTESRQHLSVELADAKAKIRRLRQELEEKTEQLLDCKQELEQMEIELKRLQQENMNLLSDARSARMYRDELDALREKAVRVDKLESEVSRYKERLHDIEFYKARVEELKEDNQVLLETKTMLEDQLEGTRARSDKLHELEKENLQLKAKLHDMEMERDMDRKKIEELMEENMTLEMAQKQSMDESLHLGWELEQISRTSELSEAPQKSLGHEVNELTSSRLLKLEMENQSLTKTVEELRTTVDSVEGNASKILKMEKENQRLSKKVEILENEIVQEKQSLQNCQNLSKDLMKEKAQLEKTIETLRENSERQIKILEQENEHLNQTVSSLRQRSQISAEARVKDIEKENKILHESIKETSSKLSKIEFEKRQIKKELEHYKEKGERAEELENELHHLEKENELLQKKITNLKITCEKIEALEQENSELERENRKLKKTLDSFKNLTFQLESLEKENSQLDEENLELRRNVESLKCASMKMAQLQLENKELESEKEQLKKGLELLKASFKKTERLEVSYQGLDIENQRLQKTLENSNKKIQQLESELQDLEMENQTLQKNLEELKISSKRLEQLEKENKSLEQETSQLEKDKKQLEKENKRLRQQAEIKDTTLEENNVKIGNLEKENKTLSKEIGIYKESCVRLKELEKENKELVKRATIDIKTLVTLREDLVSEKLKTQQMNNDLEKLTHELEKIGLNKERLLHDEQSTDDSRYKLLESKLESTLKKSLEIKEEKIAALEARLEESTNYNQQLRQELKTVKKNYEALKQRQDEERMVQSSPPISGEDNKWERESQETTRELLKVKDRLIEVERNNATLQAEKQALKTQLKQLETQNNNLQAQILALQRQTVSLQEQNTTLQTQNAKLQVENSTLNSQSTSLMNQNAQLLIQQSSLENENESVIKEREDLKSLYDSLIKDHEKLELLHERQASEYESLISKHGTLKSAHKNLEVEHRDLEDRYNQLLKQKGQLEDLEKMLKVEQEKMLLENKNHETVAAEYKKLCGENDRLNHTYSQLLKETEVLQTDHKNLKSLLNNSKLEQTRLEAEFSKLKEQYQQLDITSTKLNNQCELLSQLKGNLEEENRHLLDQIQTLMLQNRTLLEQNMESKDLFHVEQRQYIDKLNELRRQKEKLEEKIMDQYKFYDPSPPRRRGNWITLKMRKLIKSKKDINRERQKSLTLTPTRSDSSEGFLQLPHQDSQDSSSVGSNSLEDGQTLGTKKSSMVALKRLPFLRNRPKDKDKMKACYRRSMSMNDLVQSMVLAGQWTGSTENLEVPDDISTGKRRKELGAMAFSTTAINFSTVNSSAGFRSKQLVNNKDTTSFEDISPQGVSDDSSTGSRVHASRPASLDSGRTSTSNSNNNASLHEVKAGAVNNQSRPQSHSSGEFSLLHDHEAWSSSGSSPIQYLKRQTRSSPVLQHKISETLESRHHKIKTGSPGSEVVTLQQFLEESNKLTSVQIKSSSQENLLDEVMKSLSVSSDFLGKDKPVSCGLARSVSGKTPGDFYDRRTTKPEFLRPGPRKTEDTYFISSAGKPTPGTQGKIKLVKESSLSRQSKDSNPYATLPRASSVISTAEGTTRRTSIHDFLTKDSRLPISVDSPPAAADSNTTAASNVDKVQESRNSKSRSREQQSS
UniProt P06733: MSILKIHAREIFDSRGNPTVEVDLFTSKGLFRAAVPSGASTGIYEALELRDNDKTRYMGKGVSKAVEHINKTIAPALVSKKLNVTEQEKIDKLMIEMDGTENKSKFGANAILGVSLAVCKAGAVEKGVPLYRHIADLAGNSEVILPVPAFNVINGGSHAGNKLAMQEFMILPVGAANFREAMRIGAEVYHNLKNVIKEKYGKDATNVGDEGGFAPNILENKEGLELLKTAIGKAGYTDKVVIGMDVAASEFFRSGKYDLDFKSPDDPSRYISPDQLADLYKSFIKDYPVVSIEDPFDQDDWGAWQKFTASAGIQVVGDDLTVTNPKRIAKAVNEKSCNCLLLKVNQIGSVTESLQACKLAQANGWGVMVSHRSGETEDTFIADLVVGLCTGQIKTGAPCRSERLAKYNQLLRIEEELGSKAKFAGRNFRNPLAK
UniProt P62258: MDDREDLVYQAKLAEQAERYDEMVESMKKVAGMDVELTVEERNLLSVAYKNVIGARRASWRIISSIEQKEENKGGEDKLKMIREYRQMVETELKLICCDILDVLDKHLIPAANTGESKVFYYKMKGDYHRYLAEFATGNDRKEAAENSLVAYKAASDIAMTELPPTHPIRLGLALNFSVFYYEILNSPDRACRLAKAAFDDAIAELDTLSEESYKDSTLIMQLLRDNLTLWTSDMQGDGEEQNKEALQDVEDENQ
UniProt P11586: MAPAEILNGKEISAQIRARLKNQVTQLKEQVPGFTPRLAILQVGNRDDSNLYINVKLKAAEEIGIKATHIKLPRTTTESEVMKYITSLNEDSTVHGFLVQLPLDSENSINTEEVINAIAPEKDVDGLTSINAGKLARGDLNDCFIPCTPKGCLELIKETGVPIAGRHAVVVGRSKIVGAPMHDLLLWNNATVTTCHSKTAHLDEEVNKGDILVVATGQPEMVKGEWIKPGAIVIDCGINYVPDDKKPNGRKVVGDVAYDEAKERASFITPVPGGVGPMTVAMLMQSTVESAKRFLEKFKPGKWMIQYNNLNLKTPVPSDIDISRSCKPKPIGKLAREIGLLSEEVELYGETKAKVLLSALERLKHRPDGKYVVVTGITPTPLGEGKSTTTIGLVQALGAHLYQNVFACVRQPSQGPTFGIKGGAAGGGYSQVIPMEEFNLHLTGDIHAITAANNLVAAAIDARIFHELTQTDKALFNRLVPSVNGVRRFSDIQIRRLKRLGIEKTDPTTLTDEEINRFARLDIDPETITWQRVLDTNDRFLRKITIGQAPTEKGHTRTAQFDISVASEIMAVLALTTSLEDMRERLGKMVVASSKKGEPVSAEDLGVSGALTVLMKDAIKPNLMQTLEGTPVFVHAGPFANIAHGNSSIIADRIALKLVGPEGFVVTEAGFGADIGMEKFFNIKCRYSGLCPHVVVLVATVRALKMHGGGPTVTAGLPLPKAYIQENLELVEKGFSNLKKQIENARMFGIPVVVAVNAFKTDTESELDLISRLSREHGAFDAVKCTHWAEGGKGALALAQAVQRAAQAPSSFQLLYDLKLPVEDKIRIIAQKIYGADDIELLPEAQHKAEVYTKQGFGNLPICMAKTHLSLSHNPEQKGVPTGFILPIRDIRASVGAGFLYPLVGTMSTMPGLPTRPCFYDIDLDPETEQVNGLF
UniProt P21333: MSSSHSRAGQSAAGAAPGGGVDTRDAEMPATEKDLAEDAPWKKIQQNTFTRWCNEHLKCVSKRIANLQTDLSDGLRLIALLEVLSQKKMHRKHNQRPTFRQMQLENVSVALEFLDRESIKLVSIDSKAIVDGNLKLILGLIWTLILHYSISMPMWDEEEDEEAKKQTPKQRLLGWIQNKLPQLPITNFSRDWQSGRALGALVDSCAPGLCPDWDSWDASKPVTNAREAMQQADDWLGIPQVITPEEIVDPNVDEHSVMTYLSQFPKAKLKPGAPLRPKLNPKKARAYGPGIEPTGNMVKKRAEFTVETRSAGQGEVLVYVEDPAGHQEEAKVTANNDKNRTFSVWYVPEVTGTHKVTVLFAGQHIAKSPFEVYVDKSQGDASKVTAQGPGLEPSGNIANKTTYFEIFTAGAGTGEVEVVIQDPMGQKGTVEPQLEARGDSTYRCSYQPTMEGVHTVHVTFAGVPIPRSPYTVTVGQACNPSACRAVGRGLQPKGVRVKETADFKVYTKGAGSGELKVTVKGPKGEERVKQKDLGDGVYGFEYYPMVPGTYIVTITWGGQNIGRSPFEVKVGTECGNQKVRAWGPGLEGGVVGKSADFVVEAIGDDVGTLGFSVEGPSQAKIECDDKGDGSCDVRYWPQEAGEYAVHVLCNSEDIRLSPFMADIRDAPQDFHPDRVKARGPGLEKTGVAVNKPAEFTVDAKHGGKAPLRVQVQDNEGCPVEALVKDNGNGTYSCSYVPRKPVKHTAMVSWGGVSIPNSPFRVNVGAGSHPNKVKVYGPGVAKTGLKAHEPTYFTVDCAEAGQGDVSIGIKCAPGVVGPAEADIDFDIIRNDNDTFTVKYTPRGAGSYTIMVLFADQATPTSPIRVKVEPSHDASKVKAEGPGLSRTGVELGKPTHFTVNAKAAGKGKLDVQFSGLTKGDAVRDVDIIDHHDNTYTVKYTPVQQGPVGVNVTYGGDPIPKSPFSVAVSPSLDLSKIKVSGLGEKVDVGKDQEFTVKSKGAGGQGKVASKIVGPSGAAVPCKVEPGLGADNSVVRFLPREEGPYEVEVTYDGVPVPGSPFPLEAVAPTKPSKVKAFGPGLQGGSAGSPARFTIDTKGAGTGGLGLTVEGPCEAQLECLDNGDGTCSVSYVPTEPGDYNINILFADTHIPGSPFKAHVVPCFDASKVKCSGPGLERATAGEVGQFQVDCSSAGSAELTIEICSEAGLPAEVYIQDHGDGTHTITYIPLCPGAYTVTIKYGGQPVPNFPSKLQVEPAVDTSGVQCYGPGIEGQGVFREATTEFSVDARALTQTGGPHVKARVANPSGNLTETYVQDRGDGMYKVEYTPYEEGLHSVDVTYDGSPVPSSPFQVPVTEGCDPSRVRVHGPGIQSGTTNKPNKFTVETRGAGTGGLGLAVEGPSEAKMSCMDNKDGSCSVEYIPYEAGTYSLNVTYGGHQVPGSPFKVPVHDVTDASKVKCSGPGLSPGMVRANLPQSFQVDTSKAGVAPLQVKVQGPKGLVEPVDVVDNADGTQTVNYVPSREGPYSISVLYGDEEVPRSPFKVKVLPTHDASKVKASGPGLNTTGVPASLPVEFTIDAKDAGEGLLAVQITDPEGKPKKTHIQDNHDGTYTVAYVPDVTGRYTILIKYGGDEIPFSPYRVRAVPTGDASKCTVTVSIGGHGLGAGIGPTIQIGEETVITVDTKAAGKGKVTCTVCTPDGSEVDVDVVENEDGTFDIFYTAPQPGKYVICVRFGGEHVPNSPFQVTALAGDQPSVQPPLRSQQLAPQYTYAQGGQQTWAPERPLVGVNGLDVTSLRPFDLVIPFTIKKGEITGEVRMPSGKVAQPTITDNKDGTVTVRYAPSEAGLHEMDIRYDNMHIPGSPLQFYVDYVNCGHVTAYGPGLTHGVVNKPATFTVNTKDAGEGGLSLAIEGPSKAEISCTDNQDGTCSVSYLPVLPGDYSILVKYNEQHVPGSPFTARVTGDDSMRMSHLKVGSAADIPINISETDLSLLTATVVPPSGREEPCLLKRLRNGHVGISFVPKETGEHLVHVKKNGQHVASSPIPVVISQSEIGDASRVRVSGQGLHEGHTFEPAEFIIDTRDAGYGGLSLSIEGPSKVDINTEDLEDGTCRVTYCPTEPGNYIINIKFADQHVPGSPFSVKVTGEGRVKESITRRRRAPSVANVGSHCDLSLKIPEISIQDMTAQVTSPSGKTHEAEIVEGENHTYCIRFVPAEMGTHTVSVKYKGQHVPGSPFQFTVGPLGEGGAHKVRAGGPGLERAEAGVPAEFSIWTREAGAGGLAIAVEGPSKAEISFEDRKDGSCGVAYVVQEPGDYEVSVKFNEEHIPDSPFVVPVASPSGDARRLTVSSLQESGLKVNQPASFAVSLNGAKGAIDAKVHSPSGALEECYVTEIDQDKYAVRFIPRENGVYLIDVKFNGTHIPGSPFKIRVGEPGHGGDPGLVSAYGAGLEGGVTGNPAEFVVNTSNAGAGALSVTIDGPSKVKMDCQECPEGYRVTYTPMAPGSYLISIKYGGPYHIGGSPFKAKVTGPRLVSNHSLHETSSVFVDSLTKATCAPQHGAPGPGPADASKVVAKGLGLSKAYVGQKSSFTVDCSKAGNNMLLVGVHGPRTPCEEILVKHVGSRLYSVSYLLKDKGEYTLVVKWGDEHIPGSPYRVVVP
UniProt P07355: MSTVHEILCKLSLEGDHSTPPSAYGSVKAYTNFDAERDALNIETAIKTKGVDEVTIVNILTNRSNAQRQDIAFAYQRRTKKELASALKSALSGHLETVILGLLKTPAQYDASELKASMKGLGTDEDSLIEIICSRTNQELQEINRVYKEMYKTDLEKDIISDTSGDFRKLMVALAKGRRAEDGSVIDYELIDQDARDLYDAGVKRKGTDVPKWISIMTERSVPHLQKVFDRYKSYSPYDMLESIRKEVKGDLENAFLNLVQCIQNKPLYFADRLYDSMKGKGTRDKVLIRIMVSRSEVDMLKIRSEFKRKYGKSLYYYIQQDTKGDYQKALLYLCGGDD

According to article PMC8039524:

Molecular target: Girdin (girders of actin filament) (human (endogenous in BxPC-3 and PANC-1)) (UniProt Q3V6T2)
Assay: affinity purification with mass spectrometry; lysates of BxPC-3 cells transfected with Scramble or Girdin lentivirus, immunoprecipitated with anti-Girdin antibody; LC-MS/MS on LTQ-Orbitrap, MaxQuant

| Substance | binding |
| --- | --- |
| Alpha-enolase (from UniProt P06733 1-434) | binds |
| Alpha-actinin-4 (from UniProt O43707 1-911) | binds |
| P62/SQSTM1 (Sequestosome-1) (from UniProt Q13501 1-440) | binds |
| 14-3-3 protein epsilon (from UniProt P62258 1-255) | binds |
| C-1-tetrahydrofolate synthase, cytoplasmic (from UniProt P11586 1-935) | binds |
| Filamin-A (from UniProt P21333 1-2647) | binds |
| Heat shock protein HSP 90-beta (from UniProt P08238 1-724) | binds |
| Ezrin (from UniProt P15311 1-586) | binds |
| Annexin A2 (from UniProt P07355 1-339) | binds |
| Isoform 4 of LIM domain and actin-binding protein 1 (from UniProt Q9UHB6-4 1-760) | binds |
| Isoform 3 of Heterogeneous nuclear ribonucleoprotein K (from UniProt P61978-3 1-440) | binds |
| Drebrin (from UniProt Q16643 1-649) | binds |
| Heat shock protein HSP 90-alpha (from UniProt P07900 1-732) | binds |
| Glucose-6-phosphate isomerase (Fragment) (from UniProt P06744 1-558) | binds |
| Myosin-9 (from UniProt P35579 1-1960) | binds |
| Endoplasmin (from UniProt P14625 22-803) | binds |
| prolyl 4-hydroxylase subunit beta (from UniProt P07237 18-508) | binds |
| Vimentin (from UniProt P08670 1-466) | binds |
| T-complex protein 1 subunit theta (from UniProt P50990 1-548) | binds |
| Spectrin beta chain, non-erythrocytic 1 (from UniProt Q01082 1-2364) | binds |
| Isoform 3 of A-kinase anchor protein 12 (from UniProt Q02952-3 1-1677) | binds |
| Calnexin (from UniProt P27824 21-592) | binds |
| Isoform 2 of F-actin-capping protein subunit beta (from UniProt P47756-2 1-272) | binds |
| 60 kDa heat shock protein, mitochondrial (from UniProt P10809 27-573) | binds |
| Stress-70 protein, mitochondrial (from UniProt P38646 47-679) | binds |
| Pyruvate kinase PKM (from UniProt P14618 1-531) | binds |
| Clathrin heavy chain (from UniProt Q00610 1-1675) | binds |
| Isoform 8 of Filamin-B (from UniProt O75369-8 1-2633) | binds |

Results are given in words; binding and its absence hold for the method and conditions named. Binding seen in cells or lysates may run through a third protein. Here binding means that the protein was enriched with, or labelled near, the bait; the list need not be complete.
